From paper PMC5399287 come the findings set out here.

By UniProt entry, the sequences of proteins in these tests, tags left out. Residues count along the entry.
UniProt Q92743, residues 23-480: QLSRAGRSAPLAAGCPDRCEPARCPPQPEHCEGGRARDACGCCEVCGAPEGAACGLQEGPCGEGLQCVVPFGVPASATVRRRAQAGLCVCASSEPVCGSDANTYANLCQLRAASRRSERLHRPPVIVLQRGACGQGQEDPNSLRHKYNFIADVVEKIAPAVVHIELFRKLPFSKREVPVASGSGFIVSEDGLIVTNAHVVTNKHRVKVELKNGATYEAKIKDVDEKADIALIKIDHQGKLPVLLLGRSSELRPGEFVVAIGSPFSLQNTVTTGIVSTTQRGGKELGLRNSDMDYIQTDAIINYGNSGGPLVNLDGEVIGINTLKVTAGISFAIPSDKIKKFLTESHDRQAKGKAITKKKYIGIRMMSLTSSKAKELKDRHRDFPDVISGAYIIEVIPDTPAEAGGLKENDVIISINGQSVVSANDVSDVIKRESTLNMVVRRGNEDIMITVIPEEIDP

These are yes or no findings as the source states them, for the method shown. Some entries that bind do so weakly or less than the wild type.

The assay addresses HTRA1 (high-temperature requirement A serine peptidase 1) (human (endogenous in MDA-MB-231)) (UniProt Q92743). Description: native gel or EMSA; Blue NativePAGE 3-12% of concentrated serum-free culture medium of MDA-MB-231 cells, blot with anti-HTRA1; control or LOX-depleted cells, or cells treated with CCT365623 or BAPN. In general terms: In EMSA bound probe runs differently from free probe, usually more slowly.

Turning to “HTRA1 (high-temperature requirement A serine peptidase 1) (from UniProt Q92743 23-480) (enzyme)”, the binding entry is listed as “binds”.
